The target in test [1] is T1, endogenous PTPIP51 of iPS cell-derived dopaminergic neurons (human (endogenous in iPS cell-derived neurons)) (UniProt Q96TC7).
T1 sequence: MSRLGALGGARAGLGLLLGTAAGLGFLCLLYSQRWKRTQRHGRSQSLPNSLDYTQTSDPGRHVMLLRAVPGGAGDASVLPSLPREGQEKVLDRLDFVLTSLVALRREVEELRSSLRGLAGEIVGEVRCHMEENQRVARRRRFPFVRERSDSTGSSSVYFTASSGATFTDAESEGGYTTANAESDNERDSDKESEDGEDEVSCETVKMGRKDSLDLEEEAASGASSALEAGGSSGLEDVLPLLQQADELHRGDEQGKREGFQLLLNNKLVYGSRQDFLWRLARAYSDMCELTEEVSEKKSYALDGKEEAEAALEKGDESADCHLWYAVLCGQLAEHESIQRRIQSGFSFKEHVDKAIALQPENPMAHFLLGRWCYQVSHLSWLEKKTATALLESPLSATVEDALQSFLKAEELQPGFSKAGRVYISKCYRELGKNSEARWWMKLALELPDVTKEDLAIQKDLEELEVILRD
The test is described as follows: proximity ligation; VAPB-PTPIP51 Duolink assay in fixed iPS cell-derived dopaminergic neurons, NAS control and AST (SNCA triplication).

For test [2], the target named is T2, haemagglutinin (HA)-tagged protein tyrosine phosphatase-interacting protein 51 (PTPIP51), transfected in SH-SY5Y cells (human) (UniProt Q96TC7).
T2 sequence: T1 sequence
The experiment in a line: co-IP; SH-SY5Y cells transfected with PTPIP51-HA and control vector or α-synuclein (wild-type, A53T, A30P); PTPIP51 immunoprecipitated via the HA tag, endogenous VAPB detected by immunoblot; lysis in PBS with 1% Triton X-100. For orientation: A western blot detects proteins with antibodies after separation by electrophoresis.

The target of test [3] is T3, endogenous PTPIP51 of SH-SY5Y cells (human (endogenous in SH-SY5Y)) (UniProt Q96TC7).
T3 sequence: T1 sequence
The test is described as follows: proximity ligation; VAPB-PTPIP51 Duolink assay with rabbit VAPB and rat PTPIP51 antibodies in fixed SH-SY5Y cells transfected with EGFP control vector or EGFP-α-synuclein (wild-type, A53T, A30P).

No constants are given. Whether binding was seen depends on the method and setting. Binding seen in cells or lysates may run through a third protein. Some entries that bind do so weakly or less than the wild type. For part of these data: Sequences can lack the tags named with a protein.

Turning to “endogenous VAPB of iPS cell-derived dopaminergic neurons (from UniProt O95292 1-243)”, the binding entry in test [1] is “binds”.

In the case of “endogenous VAPB of SH-SY5Y cells (from UniProt O95292 1-243)”, the binding entry in test [2] and in test [3] was “binds” throughout.

These data come from PMC5486644.
